# According to the supplement of paper PMC3334620:
# In all, about 33,000 sequences were measured (“E-score (-0.5 to 0.5)”: median about -0.0059, highest 2% from about 0.26 on). Some of the results follow.
# Molecular target: T1, Cin5 (UniProt P40917)
# T1 sequence: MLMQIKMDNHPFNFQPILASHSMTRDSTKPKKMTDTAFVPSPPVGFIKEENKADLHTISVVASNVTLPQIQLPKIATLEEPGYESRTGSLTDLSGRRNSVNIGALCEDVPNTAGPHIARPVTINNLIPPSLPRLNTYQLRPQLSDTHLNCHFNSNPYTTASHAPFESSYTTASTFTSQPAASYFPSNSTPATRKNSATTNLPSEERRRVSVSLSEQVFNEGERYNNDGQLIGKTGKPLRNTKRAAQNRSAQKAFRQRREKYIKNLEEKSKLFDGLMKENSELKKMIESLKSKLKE
# Experiment: PBM E-score (8-mer binding enrichment) (E-score (-0.5 to 0.5)); higher = stronger / more preferred TF binding
# Conditions: protein concentration: 100 nM; construct: GST-full length
# Summary of the method: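 Yeast transcription factors, full-length or as DNA-binding domains, were expressed with a GST tag using PURExpress in vitro transcription/translation. At about 100-200 nM they were applied to universal all-10-mer Agilent arrays, double-stranded by primer extension on fresh or once-stripped slides. Fluorescent anti-GST detected bound protein, and masliner normalised the scans. E-scores for ungapped eight-base words, pooled with reverse complements, came from the Universal PBM Analysis Suite.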
row,Sequence,PBM E-score
1,ATTGTACC,0.0818
2,CACAGCTG,-0.0567
3,GGTACCGA,-0.36
4,TACGCCGA,-0.161
5,ACGCAGGG,-0.0529
6,CGTTTAAG,-0.0992
7,AAGCGGGG,-0.192
8,AGCTCAGC,-0.119
9,AACCATCG,0.0953
10,CTCGGTGC,-0.0668
11,AAATTTAC,-0.00308
12,GAAAAACC,0.0542
13,CGCACTGC,-0.00351
14,CACCGCCA,0.171
15,GCGTCGCC,-0.0364
16,CAATTGCC,0.00053
17,ATGCCCAC,0.0146
18,CGGTTCTA,-0.00191
19,CTCCAACC,0.0502
20,CCCCAGGG,-0.4
21,TAGAGAGA,-0.0994
22,GTGATAAC,0.125
23,ACAAATCA,0.19
24,AGAGATGG,0.179
25,GGATCACA,0.152

row,Sequence,PBM E-score
1,CGCTCATA,-0.0885
2,AGATACCC,-0.0307
3,AAGCCCGG,-0.0671
4,GACGAATC,0.0147
5,AGTAACAG,0.133
6,ACATGAGC,-0.0462
7,GAACGATA,0.0931
8,CAGACCCC,-0.377
9,ACCTCTGG,-0.25
10,AAACCCTA,0.0927
11,CTCGAAAA,-0.114
12,CAAAAACG,0.0594
13,CGGGGGCA,-0.351
14,CAACCAAG,0.0048
15,CCTTAGTA,-0.0198
16,CAACGACA,0.141
17,AACTCCGC,-0.0915
18,CAGACCTA,-0.107
19,CGGAGCAC,-0.121
20,CGCAAGGC,0.0896
21,ATCCTACA,-0.136
22,ATCATGCG,-0.0193
23,CGCGGGTC,-0.025
24,ACGGGGAG,-0.159
25,CGTAACAG,0.159

row,Sequence,PBM E-score
1,ATTCAAAG,0.04
2,GGCTAAAC,-0.00393
3,TGGTTGAA,-0.0193
4,GATAAATA,0.245
5,CACCGAAG,0.0977
6,ATGATCCC,0.022
7,AACGTCAC,-0.0218
8,GGATTATA,0.131
9,GGGCGCAA,-0.116
10,AAATTCAC,0.11
11,AGTTCGAG,0.0936
12,GTGCGCCA,-0.16
13,GTAAAAAA,0.0416
14,TGGCTAAA,-0.00971
15,CTCTGCAA,0.0751
16,ATTCCTAA,0.0773
17,TGTCATAA,0.111
18,GCGACTCC,-0.33
19,GATCAAAA,-0.00848
20,CGACGTTC,-0.268
21,AAACGAAG,0.0268
22,AGACAGAT,0.277
23,AGCAATGC,0.113
24,AGTCGATA,0.0851
25,AGATGGGA,-0.0624

row,Sequence,PBM E-score
1,ATAAGGCC,-0.0777
2,AACTCTTG,-0.0911
3,AGTCTGGG,-0.284
4,AACACGGC,-0.0562
5,ACCGGTTG,-0.117
6,CGTCTCTC,-0.019
7,ACTCTTCA,0.0764
8,ACCAGTCT,-0.11
9,CACTAATG,0.0736
10,ACGTCTGG,-0.0539
11,GTGACGCA,-0.115
12,AAGTATAC,0.153
13,ACTTGAAC,-0.00791
14,ACTCCCCC,-0.389
15,ATCTTAGA,0.121
16,ATTATGTA,0.42
17,CATAATGG,0.0936
18,GTCGAATA,0.0797
19,GATATGAA,0.0853
20,ATACGCTA,0.0784
21,AGACGGAG,0.0487
22,CCGTTACC,0.0192
23,CACAGCGA,0.0258
24,CGCAGATA,0.0282
25,ATCTCGAC,0.0547

row,Sequence,PBM E-score
1,GAATGGCA,0.00941
2,CAGGAGGA,-0.315
3,GACTACAA,-0.0163
4,ACGAGCGA,0.0185
5,TAACGAAA,0.246
6,AGGCAGTA,-0.15
7,GGCAACAC,-0.0192
8,GAACATAC,0.119
9,ACAAAAAC,0.107
10,TCCGTACA,0.0845
11,GTATCTAA,0.153
12,ATAATCGG,0.291
13,ATCTGATG,0.0461
14,ATACCATC,0.175
15,CCTTGTTA,-0.0571
16,GCGGAAAC,0.0316
17,AGTCGTTA,-0.031
18,ACGGTGTA,0.0405
19,CGTCCCCC,-0.414
20,GCGCACAA,0.115
21,AAGAATAT,0.0301
22,CTAGTTGC,0.00128
23,GAGCGATA,-0.054
24,ACAGTGCG,-0.0585
25,ACTCCTCG,-0.0384

# A different layout for part of the listing above.
row | Sequence | PBM E-score
4 | ACGAGCGA | 0.0185
5 | TAACGAAA | 0.246
6 | AGGCAGTA | -0.15
7 | GGCAACAC | -0.0192
8 | GAACATAC | 0.119
9 | ACAAAAAC | 0.107

# Additional entries

row,Sequence,PBM E-score
1,AACCGGAT,0.207
2,ATGTTCCG,0.115
3,GATCATCC,-0.0259
4,CCCGCACC,-0.0467
5,ACAATTAG,-0.0153
6,AGTGACGA,-0.0175
7,AGAGACAT,0.0523
8,CACGTCCG,-0.149
9,AGAGTTTA,0.11
10,GGGGTTAA,-0.0418
11,CGGACGGA,-0.116
12,ACCAATCC,0.135
13,CCTTGAAC,-0.108
14,GACACTGA,0.0297
15,AAACTGGT,0.0256
16,GTAGCACA,-0.0233
17,GAGTGTAC,-0.109
18,CTCAAATA,0.0684
19,GGTAAGAC,-0.0686
20,AGCTGGAT,0.0213
21,CTTATACA,0.0656
22,CTGATTTA,0.0451
23,ACAAGGCC,-0.172
24,ATCATGGG,-0.0805
25,AGCGTACA,-0.0781

row,Sequence,PBM E-score
1,CCCCCGAG,-0.288
2,AGGCCCGG,-0.367
3,AGAAGTTA,0.0742
4,CACAAGCA,-0.045
5,GGGCAACA,0.0928
6,ATTCAAGG,-0.127
7,AACTGAGA,0.047
8,GATGATAA,0.184
9,CCCAATCG,0.0686
10,ACCAGCGT,-0.157
11,ATACTAGG,0.105
12,AAAAGGTG,-0.0654
13,AAGGGCCC,-0.124
14,ATCACGCG,0.137
15,TAGCACCA,0.0184
16,GCGAGTCA,-0.164
17,CGCAACTC,0.103
18,AGGTTAGG,0.0566
19,AACAAAAA,0.209
20,ACCCAGGT,-0.31
21,GAACGCAA,0.0513
22,ACGGAAAT,0.305
